Assay results taken from doi:10.1101/2023.06.30.547269.
No constants are given. Whether binding was seen depends on the method and setting. Where a sequence is shown, tags or fusion partners need not be part of it.

Target: T1, PHYTOCHROME … FACTOR 4 (PIF4), yeast two-hybrid fusion (Arabidopsis thaliana) (UniProt Q8W2F3)
T1 sequence: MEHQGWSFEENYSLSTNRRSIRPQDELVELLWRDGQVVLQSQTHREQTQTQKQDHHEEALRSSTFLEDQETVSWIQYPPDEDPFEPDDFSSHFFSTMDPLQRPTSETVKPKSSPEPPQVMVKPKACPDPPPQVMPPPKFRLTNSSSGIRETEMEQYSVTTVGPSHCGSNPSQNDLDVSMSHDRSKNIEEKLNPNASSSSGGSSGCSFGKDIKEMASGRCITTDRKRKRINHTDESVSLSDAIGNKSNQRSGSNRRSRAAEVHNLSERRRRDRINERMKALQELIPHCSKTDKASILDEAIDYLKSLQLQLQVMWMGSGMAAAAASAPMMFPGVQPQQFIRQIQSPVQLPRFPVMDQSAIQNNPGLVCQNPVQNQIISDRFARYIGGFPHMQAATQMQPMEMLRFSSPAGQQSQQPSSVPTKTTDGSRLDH
Assay: two-hybrid

binding: no binding
B1: MPK7, yeast two-hybrid fusion (enzyme, UniProt Q39027 1-368)
chain: MAMLVEPPNGIKQQGKHYYSMWQTLFEIDTKYVPIKPIGRGAYGVVCSSINRETNERVAIKKIHNVFENRVDALRTLRELKLLRHVRHENVIALKDVMLPANRSSFKDVYLVYELMDTDLHQIIKSSQSLSDDHCKYFLFQLLRGLKYLHSANILHRDLKPGNLLVNANCDLKICDFGLARTSQGNEQFMTEYVVTRWYRAPELLLCCDNYGTSIDVWSVGCIFAEILGRKPIFPGTECLNQLKLIINVVGSQQESDIRFIDNPKARRFIKSLPYSRGTHLSNLYPQANPLAIDLLQRMLVFDPTKRISVTDALLHPYMAGLFDPGSNPPAHVPISLDIDENMEEPVIREMMWNEMLYYHPEAEISNA
